{"source": "patent US20230112845A1", "about": "“COMPOSITIONS OF BERBERINE URSODE[…] METHODS THEREOF FOR TREATING FATTY LIVER DISEASE, DIABETES AND HYPERLIPIDEMIA” (SHENZHEN HIGHTIDE BIOPHARMACEUTICAL LTD., priority 2020, published 2023)", "tested_on": "patients with presumed NASH and type 2 diabetes", "assay": "Phase 2 trial: change in serum bile acids", "assay_type": "in vivo, human", "settings": "1000 mg treatment group, Baseline to Week 18", "data": [{"smiles": "COc1ccc2cc3[n+](cc2c1OC)CCc1cc2c(cc1-3)OCO2.C[C@H](CCC(=O)[O-])[C@H]1CC[C@H]2[C@@H]3[C@@H](O)C[C@@H]4C[C@H](O)CC[C@]4(C)[C@H]3CC[C@]12C", "note": "[BUDCA, berberine ursodeoxycholate]", "values": [{"measurement": "Primary bile acids and metabolites, Percent Change from Baseline, Mean", "result": 114, "unit": "%"}, {"measurement": "Secondary bile acids and metabolites, Percent Change from Baseline, Mean", "result": "−13", "unit": "%"}, {"measurement": "Total bile acids, Percent Change from Baseline, Mean", "result": 256, "unit": "%"}, {"measurement": "Urso bile acids, Absolute Change from Baseline, Median", "result": 2072}, {"measurement": "Urso bile acids, Percent Change from Baseline, Mean", "result": 4741, "unit": "%"}, {"measurement": "Urso bile acids, Percent Change from Baseline, Median", "result": 1975, "unit": "%"}, {"measurement": "Total bile acids, Absolute Change from Baseline, Mean", "setting": "P vs Placebo 0.016", "result": 1625}, {"measurement": "Secondary bile acids and metabolites, Absolute Change from Baseline, Mean", "setting": "P vs Placebo 0.459", "result": "−28"}, {"measurement": "Primary bile acids and metabolites, Absolute Change from Baseline, Mean", "setting": "P vs Placebo 0.882", "result": "−171"}, {"measurement": "Urso bile acids, Absolute Change from Baseline, Mean", "setting": "P vs Placebo <0.001", "result": 1824}]}]}
